Assay [1] deals with T1, RXRα (endogenous, 3T3-L1 adipocytes) (mouse (endogenous in 3T3-L1)) (UniProt P28700).
T1 sequence: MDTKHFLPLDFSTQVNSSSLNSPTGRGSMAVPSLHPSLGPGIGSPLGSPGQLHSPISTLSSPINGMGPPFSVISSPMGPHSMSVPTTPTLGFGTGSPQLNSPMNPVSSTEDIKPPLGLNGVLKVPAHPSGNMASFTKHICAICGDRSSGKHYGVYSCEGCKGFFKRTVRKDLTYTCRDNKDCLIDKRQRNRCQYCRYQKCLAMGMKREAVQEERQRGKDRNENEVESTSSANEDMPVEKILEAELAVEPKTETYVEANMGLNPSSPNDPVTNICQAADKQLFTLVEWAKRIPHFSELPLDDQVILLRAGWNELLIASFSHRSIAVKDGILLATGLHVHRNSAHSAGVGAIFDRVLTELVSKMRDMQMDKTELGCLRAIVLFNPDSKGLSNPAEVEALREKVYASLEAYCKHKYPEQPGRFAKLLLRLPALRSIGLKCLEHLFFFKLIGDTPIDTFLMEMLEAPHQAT
Description: co-IP; endogenous proteins, nuclear extracts of 3T3-L1 differentiated adipocytes; precipitated with anti-RXRα or anti-PPARγ antibody, matched IgG as control (Nuclear Complex Co-IP kit, Dynabeads Protein G); western blot.

Assay [2] deals with T2, RXRα (plasmid-encoded) (UniProt P28700).
T2 sequence: T1 sequence
Description: co-IP; nuclear fractions of 293T cells co-transfected with PPARγ, ZFP407 and RXRα plasmids; precipitated with an anti-RXRα antibody (Nuclear Complex Co-IP kit, Dynabeads Protein G); western blot. On the technique in general: In western blotting, separated proteins are transferred to a membrane and probed.

Results are given in words; binding and its absence hold for the method and conditions named. Binding seen in cells or lysates may run through a third protein. Binding calls can cover weak binding; strength is not graded here.

“ZFP407 (endogenous, 3T3-L1 adipocytes) (mouse (endogenous in 3T3-L1))”: the binding result in assay [1] is reported as “binds”.

Turning to “ZFP407 (plasmid-encoded, Origene cat. MR214555) (mouse)”, in assay [2], the binding entry is “binds”.
